In the supplement of paper PMC10849652:
This is one part of the list.

Amino acid sequences for entries named in this document (tags omitted). A change or cut given only in a name is not applied to a line headed by its entry.
UniProt Q15714: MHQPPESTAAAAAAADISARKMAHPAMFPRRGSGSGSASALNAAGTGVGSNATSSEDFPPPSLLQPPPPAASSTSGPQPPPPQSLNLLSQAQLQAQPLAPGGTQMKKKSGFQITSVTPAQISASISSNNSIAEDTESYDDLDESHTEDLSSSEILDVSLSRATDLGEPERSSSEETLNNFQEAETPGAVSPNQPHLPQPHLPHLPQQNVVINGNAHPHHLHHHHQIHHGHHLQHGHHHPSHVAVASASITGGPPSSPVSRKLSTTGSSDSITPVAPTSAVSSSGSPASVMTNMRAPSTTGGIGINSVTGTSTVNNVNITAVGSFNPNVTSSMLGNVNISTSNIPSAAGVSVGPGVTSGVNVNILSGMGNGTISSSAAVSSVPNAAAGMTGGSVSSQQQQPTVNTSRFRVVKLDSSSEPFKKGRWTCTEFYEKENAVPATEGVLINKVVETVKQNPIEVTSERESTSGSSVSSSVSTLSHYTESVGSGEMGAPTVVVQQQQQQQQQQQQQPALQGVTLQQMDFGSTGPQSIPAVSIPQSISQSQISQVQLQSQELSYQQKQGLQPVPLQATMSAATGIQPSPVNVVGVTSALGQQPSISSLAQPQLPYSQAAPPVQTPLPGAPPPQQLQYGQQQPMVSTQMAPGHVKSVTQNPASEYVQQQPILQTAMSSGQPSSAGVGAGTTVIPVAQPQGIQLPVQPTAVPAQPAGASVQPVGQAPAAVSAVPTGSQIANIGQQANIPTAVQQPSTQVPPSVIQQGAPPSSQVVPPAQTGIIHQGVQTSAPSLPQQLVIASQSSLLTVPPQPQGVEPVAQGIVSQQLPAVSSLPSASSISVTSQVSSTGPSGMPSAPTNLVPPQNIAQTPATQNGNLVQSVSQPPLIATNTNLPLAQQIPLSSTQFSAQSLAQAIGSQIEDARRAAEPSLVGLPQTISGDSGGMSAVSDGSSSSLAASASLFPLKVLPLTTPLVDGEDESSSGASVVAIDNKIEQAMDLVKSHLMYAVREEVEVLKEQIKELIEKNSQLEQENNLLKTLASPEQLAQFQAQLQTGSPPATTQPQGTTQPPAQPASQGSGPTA
UniProt Q9BQ61: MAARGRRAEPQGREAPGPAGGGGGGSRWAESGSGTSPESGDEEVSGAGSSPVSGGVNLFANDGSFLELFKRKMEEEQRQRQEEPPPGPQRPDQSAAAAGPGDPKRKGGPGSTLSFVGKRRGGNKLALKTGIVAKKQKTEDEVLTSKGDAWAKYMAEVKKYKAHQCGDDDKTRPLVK
UniProt Q9H497: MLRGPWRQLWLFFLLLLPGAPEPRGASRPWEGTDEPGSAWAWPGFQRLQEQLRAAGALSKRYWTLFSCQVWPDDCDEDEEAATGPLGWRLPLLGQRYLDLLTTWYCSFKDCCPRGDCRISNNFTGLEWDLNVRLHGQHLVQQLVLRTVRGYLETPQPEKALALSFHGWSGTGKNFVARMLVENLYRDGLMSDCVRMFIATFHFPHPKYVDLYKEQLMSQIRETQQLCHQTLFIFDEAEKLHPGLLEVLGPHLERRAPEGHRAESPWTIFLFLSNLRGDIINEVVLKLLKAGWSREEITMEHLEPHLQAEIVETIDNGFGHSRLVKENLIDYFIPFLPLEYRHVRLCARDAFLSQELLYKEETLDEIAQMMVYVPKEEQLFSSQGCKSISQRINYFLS
UniProt Q96Q11: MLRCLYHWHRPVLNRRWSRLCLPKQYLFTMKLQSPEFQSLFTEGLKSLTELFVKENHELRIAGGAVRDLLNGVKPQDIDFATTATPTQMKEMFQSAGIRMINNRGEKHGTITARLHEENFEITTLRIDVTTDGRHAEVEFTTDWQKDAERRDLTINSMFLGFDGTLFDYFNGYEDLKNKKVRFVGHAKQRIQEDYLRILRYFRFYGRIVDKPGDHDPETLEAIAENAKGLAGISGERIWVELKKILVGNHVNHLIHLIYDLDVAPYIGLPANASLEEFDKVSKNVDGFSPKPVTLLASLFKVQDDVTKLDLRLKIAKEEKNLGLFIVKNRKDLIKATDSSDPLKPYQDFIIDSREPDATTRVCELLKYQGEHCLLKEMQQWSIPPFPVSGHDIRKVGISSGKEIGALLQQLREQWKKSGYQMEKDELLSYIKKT
UniProt Q9Y296, whole entry, looked up: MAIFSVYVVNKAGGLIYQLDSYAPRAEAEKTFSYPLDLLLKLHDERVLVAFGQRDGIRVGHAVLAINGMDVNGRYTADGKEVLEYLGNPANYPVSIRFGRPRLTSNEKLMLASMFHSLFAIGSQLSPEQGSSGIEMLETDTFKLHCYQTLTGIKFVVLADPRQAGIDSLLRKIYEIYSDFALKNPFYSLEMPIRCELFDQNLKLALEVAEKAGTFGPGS
UniProt Q13625: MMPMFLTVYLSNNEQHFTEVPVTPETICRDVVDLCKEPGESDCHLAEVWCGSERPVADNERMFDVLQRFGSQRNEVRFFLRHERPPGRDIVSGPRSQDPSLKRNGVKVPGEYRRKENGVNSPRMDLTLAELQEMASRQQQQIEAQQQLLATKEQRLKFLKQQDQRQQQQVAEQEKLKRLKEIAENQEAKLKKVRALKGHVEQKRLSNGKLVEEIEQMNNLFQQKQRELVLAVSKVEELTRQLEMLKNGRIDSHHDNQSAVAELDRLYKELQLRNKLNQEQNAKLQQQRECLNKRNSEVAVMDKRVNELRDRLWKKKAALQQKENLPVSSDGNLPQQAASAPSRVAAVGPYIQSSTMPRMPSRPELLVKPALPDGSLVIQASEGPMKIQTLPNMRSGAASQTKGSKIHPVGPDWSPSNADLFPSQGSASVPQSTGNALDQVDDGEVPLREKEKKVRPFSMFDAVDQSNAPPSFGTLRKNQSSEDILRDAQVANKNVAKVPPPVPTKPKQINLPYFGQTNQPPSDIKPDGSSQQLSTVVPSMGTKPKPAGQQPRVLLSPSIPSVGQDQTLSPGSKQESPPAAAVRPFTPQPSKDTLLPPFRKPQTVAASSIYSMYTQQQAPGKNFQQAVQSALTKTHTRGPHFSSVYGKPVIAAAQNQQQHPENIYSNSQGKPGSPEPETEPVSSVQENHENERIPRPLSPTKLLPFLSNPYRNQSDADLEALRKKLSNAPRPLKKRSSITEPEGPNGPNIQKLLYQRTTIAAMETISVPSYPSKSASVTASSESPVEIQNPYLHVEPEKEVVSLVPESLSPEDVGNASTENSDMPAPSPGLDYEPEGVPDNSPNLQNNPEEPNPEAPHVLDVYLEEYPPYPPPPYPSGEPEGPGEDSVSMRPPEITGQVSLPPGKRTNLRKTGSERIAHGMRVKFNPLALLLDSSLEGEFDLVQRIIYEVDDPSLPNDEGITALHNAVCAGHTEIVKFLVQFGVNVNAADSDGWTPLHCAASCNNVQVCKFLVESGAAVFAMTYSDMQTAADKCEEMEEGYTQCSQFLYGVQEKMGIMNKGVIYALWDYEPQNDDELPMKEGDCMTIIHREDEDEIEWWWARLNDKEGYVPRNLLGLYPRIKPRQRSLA
UniProt Q53FA7: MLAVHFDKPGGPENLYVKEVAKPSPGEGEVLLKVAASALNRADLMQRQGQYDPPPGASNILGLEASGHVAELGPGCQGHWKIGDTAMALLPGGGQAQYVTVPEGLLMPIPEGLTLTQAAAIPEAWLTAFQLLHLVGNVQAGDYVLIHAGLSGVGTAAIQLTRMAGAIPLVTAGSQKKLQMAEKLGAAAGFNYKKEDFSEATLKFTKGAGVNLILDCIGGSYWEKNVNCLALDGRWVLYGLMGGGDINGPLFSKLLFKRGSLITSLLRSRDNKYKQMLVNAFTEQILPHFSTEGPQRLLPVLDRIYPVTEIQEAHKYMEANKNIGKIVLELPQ
UniProt Q8NFQ8: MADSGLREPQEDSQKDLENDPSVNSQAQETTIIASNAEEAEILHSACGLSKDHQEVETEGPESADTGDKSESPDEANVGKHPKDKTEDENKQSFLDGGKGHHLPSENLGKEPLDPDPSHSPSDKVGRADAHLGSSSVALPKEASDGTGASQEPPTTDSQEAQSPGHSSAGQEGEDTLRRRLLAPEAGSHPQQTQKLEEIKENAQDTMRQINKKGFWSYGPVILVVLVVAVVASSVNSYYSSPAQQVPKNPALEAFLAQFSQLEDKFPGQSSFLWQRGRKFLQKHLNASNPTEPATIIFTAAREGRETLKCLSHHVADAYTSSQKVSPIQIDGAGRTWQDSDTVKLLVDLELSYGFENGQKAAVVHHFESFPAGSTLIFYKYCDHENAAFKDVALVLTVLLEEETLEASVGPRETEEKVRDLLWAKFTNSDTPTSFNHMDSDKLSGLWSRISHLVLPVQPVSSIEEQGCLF
UniProt Q5JTV8: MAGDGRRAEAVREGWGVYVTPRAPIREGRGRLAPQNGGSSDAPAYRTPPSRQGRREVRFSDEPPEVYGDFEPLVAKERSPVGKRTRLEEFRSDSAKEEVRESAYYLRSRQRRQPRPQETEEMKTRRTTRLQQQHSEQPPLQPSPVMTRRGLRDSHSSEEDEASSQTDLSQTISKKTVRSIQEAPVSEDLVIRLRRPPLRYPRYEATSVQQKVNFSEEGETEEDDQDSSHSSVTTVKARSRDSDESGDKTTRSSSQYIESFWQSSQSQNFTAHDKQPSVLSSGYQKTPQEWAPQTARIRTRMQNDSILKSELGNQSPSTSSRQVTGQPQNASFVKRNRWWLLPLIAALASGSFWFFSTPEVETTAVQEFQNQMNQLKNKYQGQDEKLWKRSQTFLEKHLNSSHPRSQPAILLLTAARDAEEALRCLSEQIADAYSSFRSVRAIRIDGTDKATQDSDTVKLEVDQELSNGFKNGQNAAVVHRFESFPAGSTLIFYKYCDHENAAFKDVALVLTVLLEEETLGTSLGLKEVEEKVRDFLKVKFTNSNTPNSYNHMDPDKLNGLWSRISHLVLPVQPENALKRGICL
UniProt Q9NS69: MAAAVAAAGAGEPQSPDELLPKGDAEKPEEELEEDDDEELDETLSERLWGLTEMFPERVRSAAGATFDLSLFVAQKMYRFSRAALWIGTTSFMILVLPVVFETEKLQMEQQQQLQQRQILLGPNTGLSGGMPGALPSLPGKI
UniProt Q16890: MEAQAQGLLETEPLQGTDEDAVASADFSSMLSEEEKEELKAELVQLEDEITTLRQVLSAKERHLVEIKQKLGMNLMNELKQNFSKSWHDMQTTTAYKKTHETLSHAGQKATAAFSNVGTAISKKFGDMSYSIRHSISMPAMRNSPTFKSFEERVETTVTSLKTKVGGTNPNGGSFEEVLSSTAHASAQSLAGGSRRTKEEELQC
UniProt Q13049: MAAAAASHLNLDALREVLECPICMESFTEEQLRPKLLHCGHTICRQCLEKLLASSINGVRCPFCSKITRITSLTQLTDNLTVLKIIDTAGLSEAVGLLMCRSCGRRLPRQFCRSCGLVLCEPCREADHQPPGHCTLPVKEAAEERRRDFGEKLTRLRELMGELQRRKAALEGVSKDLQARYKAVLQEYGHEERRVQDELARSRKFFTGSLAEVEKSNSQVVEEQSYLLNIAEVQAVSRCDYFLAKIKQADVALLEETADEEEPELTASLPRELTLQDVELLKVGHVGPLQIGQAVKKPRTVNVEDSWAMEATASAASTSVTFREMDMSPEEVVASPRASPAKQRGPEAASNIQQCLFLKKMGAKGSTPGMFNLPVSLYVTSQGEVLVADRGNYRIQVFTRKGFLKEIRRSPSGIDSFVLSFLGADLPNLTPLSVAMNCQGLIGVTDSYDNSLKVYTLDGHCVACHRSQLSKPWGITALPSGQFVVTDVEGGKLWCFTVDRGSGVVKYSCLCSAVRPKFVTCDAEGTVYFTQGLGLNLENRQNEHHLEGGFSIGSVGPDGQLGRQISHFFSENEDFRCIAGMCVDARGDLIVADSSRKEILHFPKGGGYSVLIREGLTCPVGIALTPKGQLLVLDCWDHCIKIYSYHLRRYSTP
UniProt P20333, whole entry, looked up: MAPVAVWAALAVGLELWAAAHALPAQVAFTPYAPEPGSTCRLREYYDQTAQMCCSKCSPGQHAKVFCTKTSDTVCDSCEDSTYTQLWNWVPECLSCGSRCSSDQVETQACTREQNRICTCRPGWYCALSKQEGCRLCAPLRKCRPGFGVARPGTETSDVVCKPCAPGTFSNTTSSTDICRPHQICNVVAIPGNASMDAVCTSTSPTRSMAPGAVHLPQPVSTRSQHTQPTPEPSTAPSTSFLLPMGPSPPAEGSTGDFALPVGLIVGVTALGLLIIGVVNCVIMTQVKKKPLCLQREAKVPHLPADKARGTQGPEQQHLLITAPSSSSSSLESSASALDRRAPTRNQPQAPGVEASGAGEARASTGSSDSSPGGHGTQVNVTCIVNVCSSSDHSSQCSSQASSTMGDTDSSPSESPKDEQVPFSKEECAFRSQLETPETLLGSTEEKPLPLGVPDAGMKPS
UniProt Q15785: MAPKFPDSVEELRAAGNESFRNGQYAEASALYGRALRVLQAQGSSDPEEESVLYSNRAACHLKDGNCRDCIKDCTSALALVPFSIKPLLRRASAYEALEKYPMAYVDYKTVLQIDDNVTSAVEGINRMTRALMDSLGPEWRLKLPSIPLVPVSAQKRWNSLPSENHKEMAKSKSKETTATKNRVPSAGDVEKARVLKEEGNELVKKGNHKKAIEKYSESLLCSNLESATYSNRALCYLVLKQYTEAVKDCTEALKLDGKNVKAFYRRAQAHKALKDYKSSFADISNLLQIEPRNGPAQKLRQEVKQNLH

Legend:
Assay in all cases: log2 fold change, soluble protein after heating vs DMSO (PISA); higher = thermal stabilisation; K562 cells, 10 uM, 30 min; active = over 0.2 and 3.5 SD of the protein, either way, in both replicates (recomputed)
[1] = compound: CS(=O)(=O)c1ccc(-c2cnc(N)c(C(=O)Nc3ccccc3)n2)cc1
Procedure, shortened: (§1)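 K562 cells at 2×10^6 cells/mL were treated with 10 μM compound for 30 min. Aliquots were heated for 3 min across 48°C-58°C, pooled, and extracted in PBS with 0.5% NP-40 at 4°C; soluble protein was the supernatant after 21,000xg for 90 min. Soluble protein was quantified by TMTpro 16plex LC-MS/MS with channel sums equalised, and reported as log2 fold change in thermal stability against DMSO controls, with values from duplicates.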

[2] = compound: C[C@@H](Oc1cc(-c2cnn(C3CCNCC3)c2)cnc1N)c1c(Cl)ccc(F)c1Cl [crizotinib]
Procedure, shortened: as §1

[3] = compound: C[C@@H]1COCCN1C2=NC(=NC(=C2)C3(CC3)S(=O)(=O)C)C4=C5C=CNC5=CC=C4
Procedure, shortened: as §1

[4] = compound: C[C@H](C1=CC=C(C=C1)C(=O)NC2=C3C=CNC3=NC=C2)N
Procedure, shortened: as §1

[5] = compound: C[C@H](Nc1ncnc2nc[nH]c12)c1cc2cccc(Cl)c2c(=O)n1-c1ccccc1 [duvelisib]
Procedure, shortened: as §1

[6] = compound: Cc1cc(Nc2cc(CN3CCOCC3)c3nc(C)c(Cc4ccc(Cl)cc4F)n3n2)n[nH]1 [gandotinib]
Procedure, shortened: as §1

[7] = compound: Cc1cc(Nc2cc(N3CCN(C)CC3)nc(Sc3ccc(NC(=O)C4CC4)cc3)n2)n[nH]1 [tozasertib]
Procedure, shortened: as §1

[8] = compound: Cc1cc(SCc2sc(-c3ccc(C(F)(F)F)cc3)nc2C)ccc1OCC(=O)O
Procedure, shortened: as §1

[9] = compound: Cc1ccc(-n2nc(C(C)(C)C)cc2NC(=O)Nc2ccc(OCCN3CCOCC3)c3ccccc23)cc1 [doramapimod]
Procedure, shortened: as §1

[10] = compound: Cc1ccc(C(=O)N(CCCN)[C@@H](c2nc3cc(Cl)ccc3c(=O)n2Cc2ccccc2)C(C)C)cc1 [ispinesib]
Procedure, shortened: as §1

[11] = compound: Cc1ccc(NC(=O)c2ccc(CN3CC[C@H](N(C)C)C3)c(C(F)(F)F)c2)cc1Nc1nccc(-c2cncnc2)n1 [bafetinib]
Procedure, shortened: as §1

[12] = compound: Cc1cccc(CC(=O)N2CCc3c2ccc(-c2cn(C)c4ncnc(N)c24)c3F)n1
Procedure, shortened: as §1

[13] = compound: Cc1cn(-c2cc(NC(=O)c3ccc(C)c(Nc4nccc(-c5cccnc5)n4)c3)cc(C(F)(F)F)c2)cn1 [nilotinib]
Procedure, shortened: as §1

[14] = compound: Cc1nc(Nc2n[nH]c3c2CN(C(=O)N[C@H](CN(C)C)c2ccccc2)C3(C)C)c2sccc2n1
Procedure, shortened: as §1

[15] = compound: Cc1nc(Nc2ncc(C(=O)Nc3c(C)cccc3Cl)s2)cc(N2CCN(CCO)CC2)n1 [dasatinib]
Procedure, shortened: as §1

[16] = compound: Cc1ncc(-c2ccnc(Nc3ccc(S(C)(=O)=O)cc3)n2)n1C(C)C
Procedure, shortened: as §1

[17] = compound: Cn1cc(-c2ccc3c(c2)CCN3C(=O)Cc2cccc(C(F)(F)F)c2)c2c(N)ncnc21
Procedure, shortened: as §1

[18] = compound: Cn1cc(-c2ccc3nnc(C(F)(F)c4ccc5ncccc5c4)n3n2)cn1
Procedure, shortened: as §1

[19] = compound: Cn1cncc1[C@@](N)(c1ccc(Cl)cc1)c1ccc2c(c1)c(-c1cccc(Cl)c1)cc(=O)n2C [tipifarnib]
Procedure, shortened: as §1

[20] = compound: FC(F)(F)c1ccc(/C=C/c2nc(COc3ccc(CCCCn4ccnn4)cc3)co2)cc1 [mubritinib]
Procedure, shortened: as §1

Measured: log2 fold change

TSC22D1 (UniProt Q15714)
inactive: [1] -0.016 | [2] 0.008 | [3] 0.025 | [4] -0.06 | [5] -0.002 | [6] -0.017 | [7] 0.066 | [8] 0.084 | [9] -0.004 | [10] -0.001 | [11] -0.074 | [12] -0.004 | [13] 0.021 | [14] -0.005 | [15] -0.003 | [16] 0.017 | [17] 0.034 | [18] -0.016 | [19] -0.026 | [20] 0.068

TRIR (UniProt Q9BQ61)
inactive: [1] 0 | [2] -0.003 | [3] -0.037 | [4] -0.029 | [5] -0.014 | [6] 0.035 | [7] -0.001 | [8] 0 | [9] -0.009 | [10] -0.015 | [11] -0.066 | [12] -0.078 | [13] 0.03 | [14] 0 | [15] 0.102 | [16] -0.005 | [17] 0.013 | [18] 0.012 | [19] 0.076 | [20] 0.058

TOR3A (UniProt Q9H497)
inactive: [1] 0.025 | [2] -0.014 | [3] 0.009 | [4] 0.079 | [5] -0.018 | [6] 0.025 | [7] -0.022 | [8] -0.016 | [9] 0.03 | [10] -0.039 | [11] -0.094 | [12] 0.025 | [13] -0.17 | [14] 0.02 | [15] -0.049 | [16] -0.073 | [17] -0.035 | [18] 0.046 | [19] 0.017 | [20] -0.062

TRNT1 (UniProt Q96Q11)
inactive: [1] 0.028 | [2] -0.068 | [3] 0.009 | [4] -0.014 | [5] 0.009 | [6] -0.042 | [7] -0.083 | [8] 0 | [9] -0.038 | [10] 0.012 | [11] -0.075 | [12] -0.063 | [13] -0.073 | [14] 0.034 | [15] -0.076 | [16] 0.007 | [17] 0.027 | [18] -0.011 | [19] -0.008 | [20] -0.067

TRAPPC4 (UniProt Q9Y296)
inactive: [1] 0.024 | [2] 0.014 | [3] 0.027 | [4] -0.013 | [5] 0.027 | [6] -0.096 | [7] -0.011 | [8] 0.011 | [9] -0.013 | [10] -0.015 | [11] 0.001 | [12] 0.01 | [13] -0.034 | [14] -0.066 | [15] -0.027 | [16] -0.034 | [17] -0.023 | [18] 0.042 | [19] 0.03 | [20] -0.011

TP53BP2 isoform 3 (UniProt Q13625)
inactive: [1] 0.015 | [2] -0.087 | [3] -0.029 | [4] 0.092 | [5] -0.078 | [6] -0.035 | [7] 0.095 | [8] 0.038 | [9] 0.008 | [10] -0.221 | [11] 0.038 | [12] 0.109 | [13] 0.161 | [14] 0.022 | [15] -0.237 | [16] 0.137 | [17] 0.086 | [18] -0.037 | [19] -0.04

TRAF4 (UniProt Q9BUZ4)
inactive: [1] -0.038 | [2] -0.082 | [3] -0.091 | [4] 0.043 | [5] 0.041 | [6] 0.07 | [7] 0 | [8] 0.036 | [9] -0.016 | [10] -0.053 | [11] -0.028 | [12] -0.15 | [13] 0.009 | [14] -0.039 | [15] 0.061 | [16] 0.021 | [17] -0.048 | [18] 0.001 | [19] 0.019 | [20] 0.062

Fetched one by one from the entries so far (two):
TRAF4 (UniProt Q9BUZ4)
inactive: [1] -0.038 | [2] -0.082 | [3] -0.091 | [4] 0.043 | [5] 0.041 | [6] 0.07 | [7] 0 | [8] 0.036 | [9] -0.016 | [10] -0.053 | [11] -0.028 | [12] -0.15 | [13] 0.009 | [14] -0.039 | [15] 0.061 | [16] 0.021 | [17] -0.048 | [18] 0.001 | [19] 0.019 | [20] 0.062

TRAPPC4 (UniProt Q9Y296)
inactive: [1] 0.024 | [2] 0.014 | [3] 0.027 | [4] -0.013 | [5] 0.027 | [6] -0.096 | [7] -0.011 | [8] 0.011 | [9] -0.013 | [10] -0.015 | [11] 0.001 | [12] 0.01 | [13] -0.034 | [14] -0.066 | [15] -0.027 | [16] -0.034 | [17] -0.023 | [18] 0.042 | [19] 0.03 | [20] -0.011

Continued:

TP53I3 (UniProt Q53FA7)
inactive: [1] 0.055 | [2] 0.042 | [3] -0.066 | [4] -0.087 | [5] -0.016 | [6] 0.081 | [7] -0.022 | [8] -0.095 | [9] 0.03 | [10] -0.007 | [11] -0.029 | [12] -0.035 | [13] 0.036 | [14] -0.001 | [15] 0.049 | [16] 0.016 | [17] -0.042 | [18] 0.044 | [19] 0.08 | [20] 0.058

TOR1AIP2 (UniProt Q8NFQ8)
inactive: [1] 0.03 | [2] 0.099 | [3] 0.022 | [4] 0.135 | [5] 0.011 | [6] -0.002 | [7] 0.023 | [8] 0.04 | [9] 0.001 | [10] 0 | [11] -0.012 | [12] -0.01 | [13] 0.013 | [14] 0.059 | [15] 0.011 | [16] -0.033 | [17] -0.014 | [18] 0.009 | [19] 0.067 | [20] -0.035

TOR1AIP1 isoform 3 (UniProt Q5JTV8)
inactive: [1] 0.004 | [2] 0.052 | [3] -0.017 | [4] -0.043 | [5] 0.023 | [6] -0.011 | [7] -0.009 | [8] 0.011 | [9] -0.029 | [10] 0.089 | [11] -0.057 | [12] -0.001 | [13] -0.006 | [14] 0.018 | [15] 0.005 | [16] -0.035 | [17] 0.031 | [18] 0.01 | [19] -0.018 | [20] 0

TOMM22 (UniProt Q9NS69)
inactive: [1] 0.045 | [2] 0.106 | [3] 0.156 | [4] -0.058 | [5] 0.17 | [6] 0.028 | [7] 0.103 | [8] 0.021 | [9] 0.053 | [10] 0.139 | [11] -0.033 | [12] -0.194 | [13] 0.044 | [14] 0.029 | [15] 0.011 | [16] -0.029 | [17] 0.103 | [18] 0.14 | [19] -0.002 | [20] 0.037

TPD52L1 (UniProt Q16890)
inactive: [1] 0.023 | [2] -0.011 | [3] 0.024 | [4] -0.086 | [5] -0.007 | [6] 0.012 | [7] 0.044 | [8] 0.003 | [9] -0.054 | [10] 0.003 | [11] -0.024 | [12] 0.013 | [13] 0.005 | [14] 0.045 | [15] 0 | [16] -0.01 | [17] 0.04 | [18] -0.074 | [19] -0.039 | [20] 0.053

TRIM32 (UniProt Q13049)
inactive: [1] 0.024 | [2] 0.094 | [3] 0.066 | [4] 0.085 | [5] -0.045 | [6] -0.006 | [7] 0.01 | [8] -0.1 | [9] 0.036 | [10] 0 | [11] 0.004 | [12] -0.041 | [13] -0.066 | [14] -0.022 | [15] 0.09 | [16] 0.079 | [17] 0.308 | [18] -0.044 | [19] 0.049 | [20] -0.245

TNFRSF1B (UniProt P20333)
inactive: [1] 0.092 | [2] 0.026 | [3] -0.157 | [4] 0.008 | [5] -0.194 | [6] 0.013 | [7] -0.027 | [8] -0.124 | [9] -0.042 | [10] 0.002 | [11] -0.184 | [12] -0.027 | [13] -0.037 | [14] -0.057 | [15] 0.092 | [16] 0.05 | [17] -0.014 | [18] -0.046 | [19] 0.082 | [20] -0.034

TRMT61B (UniProt Q9BVS5)
inactive: [1] -0.037 | [2] 0.033 | [3] -0.119 | [4] 0.129 | [5] 0.018 | [6] 0.094 | [7] -0.046 | [8] -0.009 | [9] 0.05 | [10] -0.072 | [11] 0.073 | [12] -0.037 | [13] 0.078 | [14] 0.05 | [15] 0.051 | [16] 0.006 | [17] 0.002 | [18] -0.105 | [19] 0.141 | [20] -0.032

TOMM34 (UniProt Q15785)
inactive: [1] 0.065 | [2] -0.121 | [3] 0.009 | [4] 0.16 | [5] -0.085 | [6] -0.024 | [7] 0.039 | [8] 0.102 | [9] 0.011 | [10] -0.131 | [11] 0.06 | [12] 0.047 | [13] -0.084 | [14] -0.084 | [15] -0.328 | [16] 0.031 | [17] 0.014 | [18] -0.009 | [19] -0.073 | [20] 0.006
